To fix the notation:
T1: Myc-tagged Kel1 (S. cerevisiae) (UniProt P38853)
T1 sequence: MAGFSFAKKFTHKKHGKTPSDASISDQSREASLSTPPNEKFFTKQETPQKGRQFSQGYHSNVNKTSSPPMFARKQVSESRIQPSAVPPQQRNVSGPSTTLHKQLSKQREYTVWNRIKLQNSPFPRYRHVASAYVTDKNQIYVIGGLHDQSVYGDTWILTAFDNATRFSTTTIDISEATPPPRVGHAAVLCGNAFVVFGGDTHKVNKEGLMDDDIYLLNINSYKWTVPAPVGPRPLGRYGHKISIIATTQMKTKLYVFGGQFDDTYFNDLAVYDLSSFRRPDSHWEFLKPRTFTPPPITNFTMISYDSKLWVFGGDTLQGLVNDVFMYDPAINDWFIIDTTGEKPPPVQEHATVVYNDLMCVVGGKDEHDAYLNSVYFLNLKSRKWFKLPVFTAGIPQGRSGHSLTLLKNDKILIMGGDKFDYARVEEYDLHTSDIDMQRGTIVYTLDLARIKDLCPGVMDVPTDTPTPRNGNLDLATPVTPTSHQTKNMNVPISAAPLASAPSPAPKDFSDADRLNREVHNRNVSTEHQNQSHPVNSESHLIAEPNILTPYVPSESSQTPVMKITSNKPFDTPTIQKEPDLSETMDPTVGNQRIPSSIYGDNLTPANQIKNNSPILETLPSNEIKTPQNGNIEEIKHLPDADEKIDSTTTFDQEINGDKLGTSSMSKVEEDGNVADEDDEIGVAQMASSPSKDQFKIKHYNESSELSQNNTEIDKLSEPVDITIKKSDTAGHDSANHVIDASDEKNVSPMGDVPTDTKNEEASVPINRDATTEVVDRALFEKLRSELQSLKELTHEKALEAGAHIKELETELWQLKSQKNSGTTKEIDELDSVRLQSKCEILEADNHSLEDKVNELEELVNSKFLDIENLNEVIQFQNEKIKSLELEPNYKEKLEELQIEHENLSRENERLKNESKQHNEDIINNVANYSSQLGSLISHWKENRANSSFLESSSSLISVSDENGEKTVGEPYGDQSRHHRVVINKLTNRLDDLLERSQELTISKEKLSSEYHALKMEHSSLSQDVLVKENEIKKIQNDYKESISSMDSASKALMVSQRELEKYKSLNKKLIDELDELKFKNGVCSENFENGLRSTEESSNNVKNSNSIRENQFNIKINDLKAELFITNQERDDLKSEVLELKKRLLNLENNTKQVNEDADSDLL

Chains of the proteins cited; added tags and fusions are not shown.
UniProt P16892: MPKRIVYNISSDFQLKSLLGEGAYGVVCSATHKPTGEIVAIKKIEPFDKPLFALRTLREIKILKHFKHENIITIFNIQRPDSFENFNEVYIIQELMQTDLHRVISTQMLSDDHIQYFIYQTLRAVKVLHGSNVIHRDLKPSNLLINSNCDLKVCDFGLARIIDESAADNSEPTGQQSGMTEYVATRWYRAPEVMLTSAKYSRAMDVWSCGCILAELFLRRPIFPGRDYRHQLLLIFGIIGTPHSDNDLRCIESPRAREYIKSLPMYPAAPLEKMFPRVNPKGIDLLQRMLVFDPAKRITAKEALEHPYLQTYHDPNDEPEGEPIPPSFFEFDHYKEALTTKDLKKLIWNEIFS

B1: Sst2 (protein, UniProt P11972 1-698)
chain: MVDKNRTLHELSSKNFSRTPNGLIFTNDLKTVYSIFLICLDLKEKKHSSDTKSFLLTAFTKHFHFTFTYQEAIKAMGQLELKVDMNTTCINVSYNIKPSLARHLLTLFMSSKLLHTPQDRTRGEPKEKVLFQPTPKGVAVLQKYVRDIGLKTMPDILLSSFNSMKLFTFERSSVTDSIIHSDYLIHILFIKMMGAKPNVWSPTNADDPLPCLSSLLEYTNNDDTFTFEKSKPEQGWQAQIGNIDINDLERVSPLAHRFFTNPDSESHTQYYVSNAGIRLFENKTFGTSKKIVIKYTFTTKAIWQWIMDCTDIMHVKEAVSLAALFLKTGLIVPVLLQPSRTDKKKFQISRSSFFTLSKRGWDLVSWTGCKSNNIRAPNGSTIDLDFTLRGHMTVRDEKKTLDDSEGFSQDMLISSSNLNKLDYVLTDPGMRYLFRRHLEKELCVENLDVFIEIKRFLKKMTILKKLIDSKHCDKKSNTSTSKNNIVKTIDSALMKQANECLEMAYHIYSSYIMIGSPYQLNIHHNLRQNISDIMLHPHSPLSEHFPTNLYDPSPASAESAASSISSTEADTLGEPPEVSLKPSKNLSNENCSFKKQGFKHQLKEYKPAPLTLAETHSPNASVENSHTIVRYGMDNTQNDTKSVESFPATLKVLRKLYPLFEIVSNEMYRLMNNDSFQKFTQSDVYKDASALIEIQEKC
B2: Fig1 (protein, UniProt P38224 1-298)
chain: MVAISMIWFFTKRMPRIFALAFNLISIFLLIFLLIGCYNPSNQSTFLVKYKFDDNSPFYTIIEKSYEKSNTTLGLEEVIIRSGYMGVCIDNIPSQYSSYNNMTTFSNSICYARKNLSSVPLYRDLEIQLSNIASSSSKTQSSVVLNILKLAQLTSVNVIHPYVLMATVILTILMFLFILYVTVPKLPFKLAVNKFLLLLSSTIVLTWGIGAMWTHVGINASYRLVPSSSMNIITVKKGKKAAVMAWFSFAFLLLDSVVLWLIFLRDRKSLKDEIDNVPCAQNRYNNYSSDSSTLHSKV
B3: pheromone receptor Ste2 (receptor, UniProt D6VTK4 1-431)
chain: MSDAAPSLSNLFYDPTYNPGQSTINYTSIYGNGSTITFDELQGLVNSTVTQAIMFGVRCGAAALTLIVMWMTSRSRKTPIFIINQVSLFLIILHSALYFKYLLSNYSSVTYALTGFPQFISRGDVHVYGATNIIQVLLVASIETSLVFQIKVIFTGDNFKRIGLMLTSISFTLGIATVTMYFVSAVKGMIVTYNDVSATQDKYFNASTILLASSINFMSFVLVVKLILAIRSRRFLGLKQFDSFHILLIMSCQSLLVPSIIFILAYSLKPNQGTDVLTTVATLLAVLSLPLSSMWATAANNASKTNTITSDFTTSTDRFYPGTLSSFQTDSINNDAKSSLRSRLYDLYPRRKETTSDKHSERTFVSETADDIEKNQFYQLPTPTSSKNTRIGPFADASYKEGEVEPVDMYTPDTAADEEARKFWTEDNNNL
B4: Far1 (protein, UniProt P21268 1-830)
chain: MKTPTRVSFEKKIHTPPSGDRDAERSPPKKFLRGLSGKVFRKTPEFKKQQMPTFGYIEESQFTPNLGLMMSKRGNIPKPLNLSKPISPPPSLKKTAGSVASGFSKTGQLSALQSPVNITSSNKYNIKATNLTTSLLRESISDSTTMCDTLSDINLTVMDEDYRIDGDSYYEEDSPTFMISLERNIKKCNSQFSPKRYIGEKCLICEESISSTFTGEKVVESTCSHTSHYNCYLMLFETLYFQGKFPECKICGEVSKPKDKDIVPEMVSKLLTGAGAHDDGPSSNMQQQWIDLKTARSFTGEFPQFTPQEQLIRTADISCDGFRTPRLSNSNQFEAVSYLDSPFLNSPFVNKMATTDPFDLSDDEKLDCDDEIDESAAEVWFSKTGGEHVMVSVKFQEMRTSDDLGVLQDVNHVDHEELEEREKEWKKKIDQYIETNVDKDSEFGSLILFDKLMYSDDGEQWVDNNLVILFSKFLVLFDFEEMKILGKIPRDQFYQVIKFNEDVLLCSLKSTNIPEIYLRFNENCEKWLLPKWKYCLENSSLETLPLSEIVSTVKELSHVNIIGALGAPPDVISAQSHDSRLPWKRLHSDTPLKLIVCLNLSHADGELYRKRVLKSVHQILDGLNTDDLLGIVVVGRDGSGVVGPFGTFIGMINKNWDGWTTFLDNLEVVNPNVFRDEKQQYKVTLQTCERLASTSAYVDTDDHIATGYAKQILVLNGSDVVDIEHDQKLKKAFDQLSYHWRYEISQRRMTPLNASIKQFLEELHTKRYLDVTLRLPQATFEQVYLGDMAAGEQKTRLIMDEHPHSSLIEIEYFDLVKQQRIHQTLEVPNL
B5: Ste5 (protein, UniProt P32917 1-917)
chain: MMETPTDNIVSPFHNFGSSTQYSGTLSRTPNQIIELEKPSTLSPLSRGKKWTEKLARFQRSSAKKKRFSPSPISSSTFSFSPKSRVTSSNSSGNEDGNLMNTPSTVSTDYLPQHPHRTSSLPRPNSNLFHASNSNLSRANEPPRAENLSDNIPPKVAPFGYPIQRTSIKKSFLNASCTLCDEPISNRRKGEKIIELACGHLSHQECLIISFGTTSKADVRALFPFCTKCKKDTNKAVQCIPENDELKDILISDFLIHKIPDSELSITPQSRFPPYSPLLPPFGLSYTPVERQTIYSQAPSLNPNLILAAPPKERNQIPQKKSNYTFLHSPLGHRRIPSGANSILADTSVALSANDSISAVSNSVRAKDDETKTTLPLLRSYFIQILLNNFQEELQDWRIDGDYGLLRLVDKLMISKDGQRYIQCWCFLFEDAFVIAEVDNDVDVLEIRLKNLEVFTPIANLRMTTLEASVLKCTLNKQHCADLSDLYIVQNINSDESTTVQKWISGILNQDFVFNEDNITSTLPILPIIKNFSKDVGNGRHETSTFLGLINPNKVVEVGNVHDNDTVIIRRGFTLNSGECSRQSTVDSIQSVLTTISSILSLKREKPDNLAIILQIDFTKLKEEDSLIVVYNSLKALTIKFARLQFCFVDRNNYVLDYGSVLHKIDSLDSISNLKSKSSSTQFSPIWLKNTLYPENIHEHLGIVAVSNSNMEAKKSILFQDYRCFTSFGRRRPNELKIKVGYLNVDYSDKIDELVEASSWTFVLETLCYSFGLSFDEHDDDDEEDNDDSTDNELDNSSGSLSDAESTTTIHIDSPFDNENATANMVNDRNLLTEGEHSNIENLETVASSVQPALIPNIRFSLHSEEEGTNENENENDMPVLLLSDMDKGIDGITRRSSFSSLIESGNNNCPLHMDYI

No constants are given. Whether binding was seen depends on the method and setting. In cells and extracts the contact can be indirect. A yes stands for co-enrichment or nearness to the bait. Other partners may have been found. Tags and fused reporters may be left off the sequences shown.

The target in the assay is T1, Myc-tagged Kel1 (S. cerevisiae). The assay can be described thus: affinity purification with mass spectrometry.
On to “MAPK Fus3 (from UniProt P16892 1-353) (enzyme)”, for which the binding result was “binds”.
In the case of B1 it was “binds”.
In the case of B2 it was “binds”; in that of B3, “binds”.
Take B4: the binding result was “binds”.
In the case of B5 it was “binds”.

Source of the values: article doi:10.1101/2021.05.19.443414.
